In publication PMC10969049:
Results are given in words; binding and its absence hold for the method and conditions named. In cells and extracts the contact can be indirect. Some binding calls cover weakened binding; strength is not graded here.

Sequences of proteins named here, by UniProt entry; tags and fusion partners are left off.
UniProt Q9UBN7: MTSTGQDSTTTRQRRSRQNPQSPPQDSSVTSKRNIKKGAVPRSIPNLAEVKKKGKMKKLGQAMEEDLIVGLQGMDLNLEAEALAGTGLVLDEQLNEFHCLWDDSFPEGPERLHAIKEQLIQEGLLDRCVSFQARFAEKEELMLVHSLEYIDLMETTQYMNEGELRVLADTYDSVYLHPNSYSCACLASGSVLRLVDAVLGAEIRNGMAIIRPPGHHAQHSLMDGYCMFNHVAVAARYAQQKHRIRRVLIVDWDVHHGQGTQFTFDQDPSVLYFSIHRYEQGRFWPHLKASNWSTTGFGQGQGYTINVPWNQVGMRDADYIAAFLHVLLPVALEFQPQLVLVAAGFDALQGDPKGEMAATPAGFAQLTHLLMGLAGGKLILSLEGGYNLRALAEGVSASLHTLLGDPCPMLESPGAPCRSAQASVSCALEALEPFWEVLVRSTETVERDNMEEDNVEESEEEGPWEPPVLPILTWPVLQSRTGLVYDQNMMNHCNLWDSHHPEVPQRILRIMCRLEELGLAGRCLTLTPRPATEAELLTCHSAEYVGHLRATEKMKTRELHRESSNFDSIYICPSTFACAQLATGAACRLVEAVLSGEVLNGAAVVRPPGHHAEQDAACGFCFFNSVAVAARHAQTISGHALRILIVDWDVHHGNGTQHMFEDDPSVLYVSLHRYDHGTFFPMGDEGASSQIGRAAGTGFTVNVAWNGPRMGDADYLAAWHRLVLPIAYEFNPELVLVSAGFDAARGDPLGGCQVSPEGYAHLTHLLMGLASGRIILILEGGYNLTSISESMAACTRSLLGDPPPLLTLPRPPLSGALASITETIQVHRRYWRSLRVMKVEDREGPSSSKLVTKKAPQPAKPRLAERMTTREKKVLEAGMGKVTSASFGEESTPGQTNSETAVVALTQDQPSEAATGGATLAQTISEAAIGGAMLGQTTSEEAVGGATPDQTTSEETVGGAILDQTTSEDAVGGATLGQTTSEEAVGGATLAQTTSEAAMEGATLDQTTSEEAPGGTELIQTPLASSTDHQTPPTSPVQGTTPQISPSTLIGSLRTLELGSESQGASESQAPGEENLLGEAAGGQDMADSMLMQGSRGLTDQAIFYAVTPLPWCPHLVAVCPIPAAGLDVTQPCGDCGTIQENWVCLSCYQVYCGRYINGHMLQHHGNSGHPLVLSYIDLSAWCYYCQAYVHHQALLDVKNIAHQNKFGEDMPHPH
UniProt P08047: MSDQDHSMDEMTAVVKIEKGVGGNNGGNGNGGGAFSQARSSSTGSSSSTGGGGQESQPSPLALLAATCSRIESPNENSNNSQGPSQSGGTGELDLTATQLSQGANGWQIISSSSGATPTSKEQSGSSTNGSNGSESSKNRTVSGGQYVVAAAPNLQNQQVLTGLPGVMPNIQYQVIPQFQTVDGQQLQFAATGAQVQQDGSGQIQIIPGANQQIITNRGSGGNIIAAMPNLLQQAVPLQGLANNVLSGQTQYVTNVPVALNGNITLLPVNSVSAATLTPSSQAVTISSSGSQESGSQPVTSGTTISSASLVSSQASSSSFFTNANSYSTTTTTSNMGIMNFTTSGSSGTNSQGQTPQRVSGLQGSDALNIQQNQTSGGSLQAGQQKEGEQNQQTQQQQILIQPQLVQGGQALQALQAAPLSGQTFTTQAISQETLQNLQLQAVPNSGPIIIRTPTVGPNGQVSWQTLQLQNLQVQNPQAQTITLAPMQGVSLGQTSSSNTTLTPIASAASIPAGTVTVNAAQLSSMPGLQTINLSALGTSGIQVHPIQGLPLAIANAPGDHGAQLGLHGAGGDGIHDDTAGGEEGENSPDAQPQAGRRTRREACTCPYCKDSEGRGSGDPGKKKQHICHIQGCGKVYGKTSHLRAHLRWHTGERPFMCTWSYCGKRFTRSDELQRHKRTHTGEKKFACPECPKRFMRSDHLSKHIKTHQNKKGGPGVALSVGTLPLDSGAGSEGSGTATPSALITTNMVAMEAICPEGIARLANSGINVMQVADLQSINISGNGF

Molecular target: HA-tagged HDAC6 (histone deacetylase 6) (human) (UniProt Q9UBN7)
Test: co-IP; HA-tagged HDAC6 precipitated with anti-HA affinity agarose beads from 293T cell lysate; binding buffer 50 mM HEPES, 150 mM NaCl, 1% Triton X-100, pH 7.5, protease inhibitors; SP1 detected by blot; n = 3

- binding: binds
Substance: transcription factor SP1 (from UniProt P08047 1-785)
